These results are taken from paper PMC12806248.

Amino acid sequences for entries named in this document (tags omitted).
UniProt Q8BGZ3: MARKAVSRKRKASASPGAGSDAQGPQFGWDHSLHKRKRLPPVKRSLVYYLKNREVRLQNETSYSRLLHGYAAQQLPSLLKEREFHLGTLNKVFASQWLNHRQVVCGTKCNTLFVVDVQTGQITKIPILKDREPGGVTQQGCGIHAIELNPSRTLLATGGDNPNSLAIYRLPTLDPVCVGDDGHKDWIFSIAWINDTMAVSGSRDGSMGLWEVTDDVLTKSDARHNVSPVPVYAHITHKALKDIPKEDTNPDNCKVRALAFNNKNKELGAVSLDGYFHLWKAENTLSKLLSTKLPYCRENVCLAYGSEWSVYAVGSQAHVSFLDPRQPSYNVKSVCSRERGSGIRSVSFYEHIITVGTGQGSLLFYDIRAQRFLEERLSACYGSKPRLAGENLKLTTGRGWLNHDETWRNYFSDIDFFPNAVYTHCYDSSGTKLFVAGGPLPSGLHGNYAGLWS
UniProt P11983: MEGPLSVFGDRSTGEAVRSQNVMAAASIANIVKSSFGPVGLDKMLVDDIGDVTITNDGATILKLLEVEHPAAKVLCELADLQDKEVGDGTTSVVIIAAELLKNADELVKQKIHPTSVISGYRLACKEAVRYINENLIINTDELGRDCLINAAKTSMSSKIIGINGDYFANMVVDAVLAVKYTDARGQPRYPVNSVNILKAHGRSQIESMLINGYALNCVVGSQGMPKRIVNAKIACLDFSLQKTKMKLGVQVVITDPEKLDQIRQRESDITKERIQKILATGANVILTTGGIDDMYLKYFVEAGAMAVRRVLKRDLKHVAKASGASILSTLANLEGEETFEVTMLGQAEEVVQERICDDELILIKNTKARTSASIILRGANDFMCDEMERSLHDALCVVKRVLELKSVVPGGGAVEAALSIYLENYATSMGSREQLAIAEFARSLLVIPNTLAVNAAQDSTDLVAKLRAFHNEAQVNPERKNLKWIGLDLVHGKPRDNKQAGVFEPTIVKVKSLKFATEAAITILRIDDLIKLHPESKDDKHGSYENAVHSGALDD

This experiment has as its target FLAG-tagged Dcaf12 (mouse) (mouse) (UniProt Q8BGZ3). The experiment is described as follows: affinity purification with mass spectrometry; 889DTC cells stably expressing FLAG-tagged Dcaf12, 2 mM DSP crosslinking, NP-40 buffer lysis, anti-FLAG M2 affinity beads, LC-MS/MS.

No constants are given. Whether binding was seen depends on the method and setting. Binding seen in cells or lysates may run through a third protein. Here binding means that the protein was enriched with, or labelled near, the bait; the list need not be complete.

With “TRiC/CCT subunit CCT1 (Tcp1), mouse, endogenous (from UniProt P11983 1-556)”, the binding result is recorded as “binds”.

B1: TRiC/CCT subunit CCT2, mouse, endogenous (protein, UniProt P80314 1-535)
chain: MASLSLAPVNIFKAGADEERAETARLSSFIGAIAIGDLVKSTLGPKGMDKILLSSGRDAALMVTNDGATILKNIGVDNPAAKVLVDMSRVQDDEVGDGTTSVTVLAAELLREAESLIAKKIHPQTIISGWREATKAAREALLSSAVDHGSDEARFWQDLMNIAGTTLSSKLLTHHKDHFTKLAVEAVLRLKGSGNLEAIHVIKKLGGSLADSYLDEGFLLDKKIGVNQPKRIENAKILIANTGMDTDKIKIFGSRVRVDSTAKVAEIEHAEKEKMKEKVERILKHGINCFINRQLIYNYPEQLFGAAGVMAIEHADFAGVERLALVTGGEIASTFDHPELVKLGSCKLIEEVMIGEDKLIHFSGVALGEACTIVLRGATQQILDEAERSLHDALCVLAQTVKDPRTVYGGGCSEMLMAHAVTQLANRTPGKEAVAMESFAKALRMLPTIIADNAGYDSADLVAQLRAAHSEGHITAGLDMKEGTIGDMAVLGITESFQVKRQVLLSAAEAAEVILRVDNIIKAAPRKRVPDHHPC
Regarding B1, the binding entry is given as “binds”.

B2: TRiC/CCT subunit CCT7, mouse, endogenous (protein, UniProt P80313 1-544)
chain: MMPTPVILLKEGTDSSQGIPQLVSNISACQVIAEAVRTTLGPRGMDKLIVDGRGKATISNDGATILKLLDVVHPAAKTLVDIAKSQDAEVGDGTTSVTLLAAEFLKQVKPYVEEGLHPQIIIRAFRTATQLAVNKIKEIAVTVKKQDKVEQRKMLEKCAMTALSSKLISQQKVFFAKMVVDAVMMLDELLQLKMIGIKKVQGGALEESQLVAGVAFKKTFSYAGFEMQPKKYKNPKIALLNVELELKAEKDNAEIRVHTVEDYQAIVDAEWNILYDKLEKIHQSGAKVILSKLPIGDVATQYFADRDMFCAGRVPEEDLKRTMMACGGSIQTSVNALVPDVLGHCQVFEETQIGGERYNFFTGCPKAKTCTIILRGGAEQFMEETERSLHDAIMIVRRAIKNDSVVAGGGAIEMELSKYLRDYSRTIPGKQQLLIGAYAKALEIIPRQLCDNAGFDATNILNKLRARHAQGGMWYGVDINNENIADNFQAFVWEPAMVRINALTAASEAACLIVSVDETIKNPRSTVDPPAPSAGRGRGQARFH
Turning to B2, the binding entry is reported as “binds”.

B3: TRiC/CCT subunit CCT8, mouse, endogenous (protein, UniProt P42932 1-548)
chain: MALHVPKAPGFAQMLKDGAKHFSGLEEAVYRNIQACKELAQTTRTAYGPNGMNKMVINRLEKLFVTNDAATILRELEVQHPAAKMIVMASHMQEQEVGDGTNFVLVFAGALLELAEELLRIGLSVSEVISGYEIACKKAHEILPELVCCSAKNLRDVDEVSSLLRTSIMSKQYGSETFLAKLIAQACVSIFPDSGNFNVDNIRVCKILGSGIYSSSVLHGMVFKKETEGDVTSVKDAKIAVYSCPFDGMITETKGTVLIKTAEELMNFSKGEENLMDAQVKAIAGTGANVIVTGGKVADIALHYANKYNIMLVRLNSKWDLRRLCKTVGATALPKLTPPVQEEMGHCDSVYLSEVGDTQVVVFKHEKEDGAISTIVLRGSTDNLMDDIERAVDDGVNTFKVLTRDKRLVPGGGATEIELAKQITSYGETCPGLEQYAIKKFAEAFEAIPRALAENSGVKANEVISKLYSVHQEGNKNVGLDIEAEVPAVKDMLEASILDTYLGKYWAIKLATNAAVTVLRVDQIIMAKPAGGPKPPSGKKDWDDDQND
With B3, the binding result is reported as “binds”.

B4: TRiC/CCT subunit CCT3, mouse, endogenous (protein, UniProt P80318 1-545)
chain: MMGHRPVLVLSQNTKRESGRKVQSGNINAAKTIADIIRTCLGPKSMMKMLLDPMGGIVMTNDGNAILREIQVQHPAAKSMIEISRTQDEEVGDGTTSVIILAGEMLSVAEHFLEQQMHPTVVISAYRMALDDMISTLKKISTPVDVNNREMMLSIINSSITTKVISRWSSLACNIALDAVKTVQFEENGRKEIDIKKYARVEKIPGGIIEDSCVLRGVMINKDVTHPRMRRYIKNPRIVLLDSSLEYKKGESQTDIEITREEDFTRILQMEEEYIHQLCEDIIQLKPDVVITEKGISDLAQHYLMRANVTAIRRVRKTDNNRIARACGARIVSRPEELREDDVGTGAGLLEIKKIGDEYFTFITDCKDPKACTILLRGASKEILSEVERNLQDAMQVCRNVLLDPQLVPGGGASEMAVAHALTEKSKAMTGVEQWPYRAVAQALEVIPRTLIQNCGASTIRLLTSLRAKHTQESCETWGVNGETGTLVDMKELGIWEPLAVKLQTYKTAVETAVLLLRIDDIVSGHKKKGDDQNRQTGAPDAGQE
Regarding B4, the binding result was “binds”.

B5: TRiC/CCT subunit CCT4, mouse, endogenous (protein, UniProt P80315 1-539)
chain: MPENVASRSGAPTAGPGSRGKSAYQDRDKPAQIRFSNISAAKAVADAIRTSLGPKGMDKMIQDGKGDVTITNDGATILKQMQVLHPAARMLVELSKAQDIEAGDGTTSVVIIAGSLLDSCTKLLQKGIHPTIISESFQKALEKGLEILTDMSRPVQLSDRETLLNSATTSLNSKVVSQYSSLLSPMSVNAVMKVIDPATATSVDLRDIKIVKKLGGTIDDCELVEGLVLTQKVANSGITRVEKAKIGLIQFCLSAPKTDMDNQIVVSDYAQMDRVLREERAYILNLVKQIKKTGCNVLLIQKSILRDALSDLALHFLNKMKIMVVKDVEREDIEFICKTIGTKPVAHIDQFTADMLGSAELAEEVSLNGSGKLFKITGCTSPGKTVTIVVRGSNKLVIEEAERSIHDALCVIRCLVKKRALIAGGGAPEIELALRLTEYSRTLSGMESYCVRAFADAMEVIPSTLAENAGLNPISTVTELRNRHAQGEKTTGINVRKGGISNILEEMVVQPLLVSVSALTLATETVRSILKIDDVVNTR
Turning to B5, the binding result is listed as “binds”.
